Some of the results follow. The main result of the screen is listed elsewhere. These columns were measured beside it and carry no call. Most of these compounds were active or inconclusive in the main read-out, so they are no random draw. Words in brackets tell the shape of the fitted curve; partial curves, single points and poor fits give uncertain potencies.

This assay in a line: qHTS Assay to Find Inhibitors of Chronic Active B-Cell Receptor Signaling. The conditions noted are these: ABC-DLBCL IkBa-CBG/CBR reporter, luminescence ratio (green luciferase fused to IkBa over red control in TMD8 lymphoma cells), 4 h. In outline: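 TMD8 human ABC-DLBCL cells with doxycycline-inducible IκBα–green luciferase fusion and unfused red luciferase, in 0.5% FBS medium; compounds up to 46 uM, 4 h at 37C. Green/red luminescence ratio, filter-overlap corrected, fitted to concentration-response curves.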

Setting [1] is: measured here: CBR red luminescence, cell number.
The mark [2] stands for this setting: measured here: IkBa-CBG green luminescence.

Turning to `COc1ccc(NC(=S)N(CCN2CCOCC2)C2CCN(C(C)=O)CC2)cc1Cl`, the AC50 under setting [1] is 11.2 µM [rising, partial curve, poor fit]. For `Nc1ncnc2c1ncn2C1OC(CO)C(O)C1N` (configuration not stated), the AC50 under setting [1] is 6.31 µM [falling, single point].

`CCc1ccc(N2CC(C(=O)OCC(=O)Nc3ccccc3C)CC2=O)cc1` (configuration not stated): the AC50 was 29.1 µM [rising, partial curve, poor fit] under setting [1] and 32.6 µM [falling, partial curve, poor fit] under setting [2]. Take `NC(=O)Cn1c(=O)n(CCCC(=O)NC2CCN(Cc3ccccc3)CC2)c(=O)c2ccccc21`: under setting [1], the AC50 was 11.6 µM [rising, partial curve]. Take `O=C(Cn1cc(C(F)(F)F)ccc1=O)N1CCc2ccccc2C1`: under setting [1], the AC50 is 5.17 µM [rising, full curve, poor fit].

Take `CCOC(=O)C1=C(C)NC(=O)NC1`: under setting [1], the half-maximal activity concentration (AC50) was 3.16 µM [falling, single point].

As to `COc1ccc(-c2csc(NC(=O)Cc3cccc4ccccc34)c2C(=O)O)cc1`, the AC50 under setting [1] is 3.55 µM [rising, full curve, poor fit]. Still for that read-out and setting: then `COc1ccc(-c2csc(-c3cccs3)n2)c(OC)c1`, with 4.47 µM [rising, partial curve, poor fit]; and `Cc1cc(C)c(NC(=O)c2oc3ccccc3c2COc2ccccc2)c(C)c1`, with 2.91 µM [falling, full curve].

Take `CCS(=O)(=O)C1=NN2C(=N)/C(=C\c3ccc(OC(=O)c4ccco4)c(Br)c3)C(=O)N=C2S1`: under setting [1], the concentration at half-maximal activity (AC50) was 1.78 µM [falling, full curve]. On the same count and under the same terms, then `O=C(NCc1ccccc1CN1CCCC1)c1cccc(N2CCCC2=O)c1`, with 29.1 µM [rising, single point]. On to `CCCC(C(=O)O)N1C(=O)/C(=C/c2cccn2C)SC1=S` (configuration not stated), for which the concentration at half-maximal activity (AC50) was 25.9 µM [falling, partial curve] under setting [1] and 20.6 µM [rising, partial curve, poor fit] under setting [2]. For the compound `COc1ccc2[nH]c(=O)c(CNc3ccccc3)cc2c1`, the AC50 under setting [1] is 7.08 µM [rising, partial curve, poor fit]. The same measure, in the same setting: then `Fc1ccc(-c2nnc(CN3CCC(c4nc5ccccc5s4)CC3)o2)cc1`, with 8.2 µM [rising, partial curve, poor fit]. On the same count and under the same terms, in the case of `COc1ccc(C2=Nc3cc(C)ccc3OC2)cc1` it was 0.501 µM [rising, full curve, poor fit].

Consider `O=C(O)c1cccc(NC(=S)N/N=C/c2c[nH]c3ccccc23)c1`, for which the AC50 under setting [1] is 2.82 µM [falling, partial curve]. As to `O=c1cc(C(Cl)(Cl)Cl)oc2c1ccc1ccccc12`, under setting [1], the AC50 is 3.55 µM [falling, partial curve, poor fit].

In the case of `COCCCNc1nc2nonc2nc1N1CCC(C(C)N2CCOCC2)CC1` (configuration not stated), under setting [1], the concentration at half-maximal activity (AC50) was 2 µM [rising, full curve, poor fit]. Still for that read-out and setting: then `O=C(c1ccccc1O)N1N=C(c2ccccc2)CC1(O)C(F)(F)F` (configuration not stated), with 15.8 µM [falling, single point].

`COc1cccc(NC(=O)C(=O)NCCc2ccc(F)cc2)c1`: the half-maximal activity concentration (AC50) under setting [1] is 10 µM [falling, partial curve]. On the same count and under the same terms, then `COc1cc(C=O)c(Br)cc1OCc1ccc(C)cc1`, with 35.5 µM [rising, single point]; and `CCOC(=O)CCCCC(=O)c1[nH]c(=O)[nH]c1CSc1nc(C)cc(=O)[nH]1`, with 29.1 µM [rising, single point]. Still for that read-out and setting: in the case of `N#CCSc1n[nH]c2nc3c(c(=O)n12)C1(CCCC1)Cc1ccccc1-3` it was 35.5 µM [falling, single point]; in that of `COC(=O)c1ccc(NC(=O)CSc2nc3ccccc3c(=O)[nH]2)cc1`, 1.3 µM [falling, full curve, poor fit]. Still for that read-out and setting: in the case of `CCN(CC)S(=O)(=O)c1cnccc1N1CCN(c2cccc(Cl)c2)CC1` it was 29.1 µM [falling, single point]. For `COC(=O)COc1ccc(-c2ccc(F)cc2)cc1C=O`, under setting [1], the half-maximal activity concentration (AC50) is 17.8 µM [rising, single point]. Take `NS(=O)(=O)c1cc(C(=O)OCC(=O)Nc2ccc(N3CCCCC3)cc2)ccc1Cl`: under setting [1], the concentration at half-maximal activity (AC50) was 10 µM [rising, partial curve].

`Cc1cccc(N2N=C(C(=O)Nc3ccc(Cl)c(S(=O)(=O)N4CCOCC4)c3)CCC2=O)c1`: the AC50 under setting [1] was 9.2 µM [rising, partial curve, poor fit].

Take `COc1ccccc1CNC(=O)CCC1N=C2c3ccccc3N=C(SCC(=O)NCCc3ccccc3)N2C1=O` (configuration not stated): the half-maximal activity concentration (AC50) under setting [1] is 6.31 µM [falling, single point]. The same measure, in the same setting: then `O=C(Nc1nc(-c2nc3ccccc3s2)cs1)C1COc2ccccc2O1` (configuration not stated), with 18.4 µM [falling, single point].

On to `Fc1cccc(CSc2ccc(-c3ccc4c(c3)OCO4)nn2)c1`, for which the AC50 under setting [1] was 2.59 µM [rising, full curve, poor fit].

For `COc1ccc(/C=C2\SC(=S)N(C(C)C(=O)NC3C=CS(=O)(=O)C3)C2=O)cc1` (configuration not stated), the half-maximal activity concentration (AC50) under setting [1] is 12.6 µM [falling, single point]. For the compound `O=C(CCS(=O)(=O)c1ccccc1)N(CCCN1CCOCC1)c1nc2ccccc2s1`, the AC50 under setting [1] was 23.1 µM [falling, single point]. As for `Cc1nc2ccc(NC(=S)N3CCN(c4ccccn4)CC3)cc2nc1C`, under setting [1], the AC50 was 2.91 µM [rising, partial curve, poor fit]. On to `CCC1=C(OC(=O)N(CC)CC)N2C(=O)OC(=NCCc3c[nH]c4ccccc34)[C@]2(Cc2ccccc2)[C@H]2C1=CC[C@H]1C(=O)N(CC(=O)OC)C(=O)[C@H]12`, for which the concentration at half-maximal activity (AC50) under setting [1] is 7.94 µM [falling, partial curve, poor fit]. On to `Cc1ccccc1C1=NC(C(F)(F)F)(C(F)(F)F)c2c(n(C)c(=O)n(C)c2=O)N1`, for which the AC50 was 11.6 µM [rising, partial curve, poor fit] under setting [1] and 14.6 µM [falling, partial curve, poor fit] under setting [2].

Regarding `Cc1ccc(C)c(NC2=NS(=O)(=O)c3ccccc32)c1`, the AC50 under setting [1] was 13 µM [rising, partial curve, poor fit]. Same read-out and setting: in the case of `CCS(=O)c1ccccc1C(=O)OCC(=O)Nc1ccc2ccccc2c1` (configuration not stated) it was 9.2 µM [falling, single point]; in that of `Clc1ccc2c(NCc3ccccn3)ccnc2c1`, 11.2 µM [falling, single point]. Regarding `Cc1[nH][nH]c(=O)c1C(c1c(C)[nH][nH]c1=O)c1cn(Cc2ccccc2Cl)c2ccccc12`, the AC50 under setting [1] was 0.0517 µM [rising, full curve, poor fit] and the AC50 under setting [2] was 25.9 µM [falling, single point].

Turning to `c1ccc(OCCOc2ncnc3sccc23)cc1`, the AC50 is, setting by setting: under setting [1], 6.51 µM [rising, partial curve, poor fit]; under setting [2], 6.51 µM [falling, partial curve, poor fit]. Consider `CN(C)S(=O)(=O)Oc1cccc(C(=O)Nc2ccc(Cl)cc2)c1`, for which the AC50 under setting [1] is 15.8 µM [falling, partial curve, poor fit]. Still for that read-out and setting: then `Cc1cc(C)n2nc(-c3cnn(C)c3C(F)(F)F)c(Cl)c2n1`, with 35.5 µM [rising, single point]; and `CCOC(=O)Cc1csc(NC(=O)COc2ccc3ccccc3c2)n1`, with 1.26 µM [falling, full curve]. As for `Cc1cc(C)c(NC(=O)CCc2c(C)noc2C)c(C)c1`, the half-maximal activity concentration (AC50) under setting [1] was 6.51 µM [rising, single point]. On the same count and under the same terms, in the case of `N#CCC(=O)Nc1ccc(C(=O)OCC(=O)Nc2ccccc2Sc2ccccc2)cc1` it was 28.2 µM [falling, single point]. As to `Fc1ccc(-c2cnn3c(-c4cccs4)ccnc23)cc1`, the half-maximal activity concentration (AC50) under setting [1] was 3.16 µM [falling, full curve, poor fit].

With `CNC(=O)Nc1cccc(C(F)(F)F)c1`, the half-maximal activity concentration (AC50) under setting [1] was 20.6 µM [rising, partial curve, poor fit].

As for `COCCN(Cc1cc2ccc(C)cc2[nH]c1=O)S(=O)(=O)c1ccccc1`, the AC50 under setting [1] is 5.62 µM [falling, partial curve]. The same measure, in the same setting: then `CC1CC2(CCCC2)N(C(=O)N(C)C)c2ccc(F)cc21` (configuration not stated), with 35.5 µM [rising, partial curve, poor fit]; and `O=C(NNC(=S)Nc1ccccc1Cl)C1CC1`, with 0.013 µM [rising, full curve, poor fit]; and `CCCc1nnc(NC(=O)CS(=O)(=O)c2ccccc2)s1`, with 17.8 µM [falling, partial curve, poor fit]. On to `COc1cccc(C(=O)NC(=S)Nc2ccc(Cl)cc2C(=O)O)c1`, for which the AC50 under setting [1] was 5.01 µM [falling, full curve, poor fit]. Take `Cc1ccc(SCc2cn3cc(Cl)ccc3n2)cc1`: the AC50 under setting [2] is 14.1 µM [rising, partial curve, poor fit].

`Cc1ccc(S(=O)(=O)NCCCCCC(=O)Nc2nccs2)cc1`: the concentration at half-maximal activity (AC50) under setting [1] is 12.6 µM [falling, partial curve]. On the same count and under the same terms, then `O=C(COc1ccc2c(-c3ccccc3)cc(=O)oc2c1)NCCCn1ccnc1`, with 25.1 µM [rising, single point]. For `COc1ccc(/C=C2\SC(=N)N(c3nccs3)C2=O)cc1OC`, the half-maximal activity concentration (AC50) runs as follows: under setting [1], 20.6 µM [rising, partial curve]; under setting [2], 18.4 µM [falling, single point]. With `Cc1ccc(C(=O)CCC2CCCC2=O)cc1` (configuration not stated), under setting [1], the AC50 was 0.461 µM [rising, full curve, poor fit]. The same measure, in the same setting: then `COc1cccc(C(C(=O)NC(C)(C)C)N(CCC(C)C)C(=O)CCC(=O)Nc2cc(C)on2)c1OC` (configuration not stated), with 6.31 µM [rising, single point]; and `Cc1ccc(CN(C)C(=O)C2CCCN2C(=O)c2cccs2)o1` (configuration not stated), with 35.5 µM [rising, single point]. With `S=C(Nc1ccccc1Cl)N(Cc1ccccc1)Cc1ccccn1`, the concentration at half-maximal activity (AC50) under setting [2] was 35.5 µM [falling, partial curve, poor fit].

Source of the values: PubChem BioAssay AID493014 (National Center for Advancing Translational Sciences (NCATS), 2011).
